The values below come from patent publication US20210002378A1.

By UniProt entry, the sequences of proteins in these tests, tags left out. Residues count along the entry.
UniProt D3ZZK3, residues 20-547: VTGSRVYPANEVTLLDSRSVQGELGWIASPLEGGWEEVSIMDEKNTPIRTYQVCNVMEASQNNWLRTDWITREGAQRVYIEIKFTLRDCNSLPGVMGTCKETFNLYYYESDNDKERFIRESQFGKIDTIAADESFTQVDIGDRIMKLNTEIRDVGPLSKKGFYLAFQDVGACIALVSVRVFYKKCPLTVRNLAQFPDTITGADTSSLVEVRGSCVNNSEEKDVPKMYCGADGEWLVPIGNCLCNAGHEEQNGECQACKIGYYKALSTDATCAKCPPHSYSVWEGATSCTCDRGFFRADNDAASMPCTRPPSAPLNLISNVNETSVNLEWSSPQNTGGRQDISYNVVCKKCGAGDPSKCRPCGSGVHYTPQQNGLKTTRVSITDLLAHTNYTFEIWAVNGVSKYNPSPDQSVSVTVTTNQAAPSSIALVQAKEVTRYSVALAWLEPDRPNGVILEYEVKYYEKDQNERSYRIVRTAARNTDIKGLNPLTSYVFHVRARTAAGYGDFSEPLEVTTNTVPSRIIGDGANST
UniProt P54764, residues 29-209: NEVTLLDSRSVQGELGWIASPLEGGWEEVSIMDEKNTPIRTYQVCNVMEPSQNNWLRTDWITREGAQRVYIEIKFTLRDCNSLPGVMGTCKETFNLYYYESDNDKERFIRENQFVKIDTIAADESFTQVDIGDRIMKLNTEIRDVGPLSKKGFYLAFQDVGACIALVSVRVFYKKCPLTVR

No constants are given. Whether binding was seen depends on the method and setting. Some binding calls cover weakened binding; strength is not graded here.

Assay [1] has as its target rat EphA4 extracellular region-SEAP-His protein (rat) (UniProt D3ZZK3). The assay is described as follows: ELISA: EphA4 extracellular region-SEAP-His (1 nM) captured by anti-alkaline phosphatase antibody, antibody B titrated, HRP anti-human IgG, OD 450 nm. (In general: An ELISA detects its analyte on a solid surface through an enzyme-linked reagent.)
The target is the same in assay [2]. The assay is described as follows: ELISA, EphA4 extracellular region-SEAP-His captured by anti-alkaline phosphatase antibody, antibody titrated to 10 µg/mL.
In assay [3] the target is rat EphA4 extracellular region-Fc-His protein (rat; human) (UniProt D3ZZK3). The assay is described as follows: ELISA, EphA4 extracellular region-Fc-His captured by anti-human IgG antibody, antibody titrated to 10 µg/mL.
Assay [4] shares this target. The assay is described as follows: ELISA: EphA4 extracellular region-Fc-His (1 nM) captured by anti-human IgG antibody, antibody A titrated, HRP anti-mouse IgG, OD 450 nm.
Assay [5] has as its target EphA4-Ligand Binding Domain (EphA4-LBD) (UniProt P54764). The assay is described as follows: complex purified by gel filtration and solved by X-ray crystallography. Background: Size exclusion chromatography separates by hydrodynamic size, large species first.

B1: humanized anti-EphA4 monoclonal antibody (antibody B) (antibody, V domains shown)
VH: QVQLVESGGGVVQPGRSLRLSCAVSGFSLTRFGVHWVRQAPGKGLEWVAVIWRGGSTDYNAAFMSRLTISKDNSKNTVYLQMNSLRAEDTAVYYCAKESLFGVYYDYGYYSMDYWGQGTTVTVSS
VL: DIQMTQSPSSLSASVGDRVTITCRASQEISGYLSWLQQKPGKAPKRLIYAASTLDSGVPSRFSGSRSGTEYTLTISSLQPEDFATYYCLQYASYPLTFGGGTKVEIKR
As to B1, the binding entry in assay [1] and in assay [2] was “binds” throughout.

B2: mouse anti-EphA4 monoclonal antibody (antibody A) (antibody, mouse IgG1, kappa, V domains shown)
VH: QVQLKQSGPSLVQPSQSLSITCTVSGFSLTRYGVHWVRQSPGKGLEWLGVIWRGGSTDYNAAFMSRLSITKDNSKSQVFFKMNSLQADDTAIYYCAKESLFGVYYDYGYYSMDYWGQGTSVTVSS
VL: DIQMTQSPSSLSASLGERVSLTCRASQEISGYLSWLQQKPDGTIKRLIYAASTLDSGVPKRFSGSRSGSDYSLTISSLESEDFADYYCLQYASYPLTFGAGTKLELKR
As to B2, the binding result in assay [3] and in assay [4] was “binds” in each case.

B3: antibody A-Fab (Fab, V domains shown, not shown: a dimerising Fc or GST)
VH: QVQLKQSGPSLVQPSQSLSITCTVSGFSLTRYGVHWVRQSPGKGLEWLGVIWRGGSTDYNAAFMSRLSITKDNSKSQVFFKMNSLQADDTAIYYCAKESLFGVYYDYGYYSMDYWGQGTSVTVSS
VL: DIQMTQSPSSLSASLGERVSLTCRASQEISGYLSWLQQKPDGTIKRLIYAASTLDSGVPKRFSGSRSGSDYSLTISSLESEDFADYYCLQYASYPLTFGAGTKLELKR
As for B3, in assay [5], the binding result is recorded as “binds”.
